Here are results for 3 compounds from patent US8709303B2, “Dielectric insulation medium” (ABB Research Ltd., priority 2010, dated 2014).

Structures are written as SMILES.

Data set [1] is described as follows: global warming potential (GWP) over 100 years.
The nature of data set [2]: ozone depletion potential (ODP).
Data set [3] is described as follows: dielectric strength / electric breakdown field strength of the insulation medium as a function of gas pressure. Format: physicochemical.

For the compound `FC(F)(F)COC(F)(F)F` [2,2,2-trifluoroethyl-trifluoromethyl ether (CF3—O—CH2CF3)], in data set [1], the GWP is 487. The compound also had an ODP in data set [2] of 0.
`FS(F)(F)(F)(F)F` [SF6, sulphur hexafluoride SF6, reference compound]: the dielectric strength in data set [3] (pure gas at the same pressure (1 bar)) is 84 kV/cm.
Compound `COC(F)(F)C(F)(F)F` [pentafluoro-ethyl-methyl ether, pentafluoro-ethyl-methyl ether (CH3—O—CF2CF3)] gave a GWP in data set [1] of 697. Besides, the dielectric strength in data set [3] (1 bar total pressure, small amount of admixture gas added (higher boiling point, dielectric strength higher than SF6)) was 68 kV/cm. The “dielectric strength relative to air” value in data set [3] (at 1 bar) is “about 2.4 times”. This compound also gave an ODP in data set [2] of 0.
